Measurements taken from PubChem BioAssay AID743266 (National Center for Advancing Translational Sciences (NCATS), 2014).
In all, about 410,000 compounds went through this assay and about 310 (0.076%) were called active. The shares of active, inactive and inconclusive entries below differ from those in the screen. Calls follow the shape of the dose curve; as a rule, active = well fitted activation curve with a large enough effect; inconclusive = small, poorly fitted or top-dose-only effect, or another doubt; inactive = no such curve, though single readings can be large or run the other way. Where the call is inconclusive, the potency comes from a doubtful curve fit.

The chains behind the UniProt entries cited, without tags or fusion partners. Where a name states a change or a piece, a line headed by the entry shows the natural chain unless it says otherwise.
UniProt Q03431: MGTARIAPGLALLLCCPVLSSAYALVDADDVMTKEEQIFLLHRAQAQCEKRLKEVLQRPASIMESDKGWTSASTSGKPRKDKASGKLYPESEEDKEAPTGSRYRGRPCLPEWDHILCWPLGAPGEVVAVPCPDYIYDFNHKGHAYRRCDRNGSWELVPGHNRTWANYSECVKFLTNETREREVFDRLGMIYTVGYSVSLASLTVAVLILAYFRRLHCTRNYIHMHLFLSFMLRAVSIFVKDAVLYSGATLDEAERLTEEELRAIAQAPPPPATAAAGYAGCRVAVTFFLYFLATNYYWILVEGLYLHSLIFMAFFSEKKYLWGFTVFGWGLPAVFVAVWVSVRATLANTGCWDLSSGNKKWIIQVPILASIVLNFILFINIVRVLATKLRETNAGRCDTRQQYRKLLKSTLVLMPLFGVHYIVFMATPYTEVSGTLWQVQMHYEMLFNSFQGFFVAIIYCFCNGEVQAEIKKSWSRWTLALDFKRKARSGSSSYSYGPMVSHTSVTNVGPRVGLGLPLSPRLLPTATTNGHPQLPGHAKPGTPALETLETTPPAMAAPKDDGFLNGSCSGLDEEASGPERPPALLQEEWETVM

biological target: Parathyroid hormone/parathyroid hormone-related peptide receptor (Homo sapiens) (UniProt Q03431); experiment: qHTS for PTHR1 Agonists: Primary Screen; settings: HEK293 GP2 PTHR1 cells, GloSensor cAMP luminescence, 1 h; activation: at 115 µM (top of the series) unless noted; series mostly up to 115 µM; also: nearly all actives have a fitted effect of over 55% in size
How it was run: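 HEK-293-derived GP2 cells expressing PTHR1 and a GloSensor cAMP reporter, 3,000/well, plated overnight, given luciferin plus IBMX (each 0.5 mM as added) for 1 h at 37 °C, then compound for 1 h at 37 °C. Luminescence was read after 15 min at room temperature.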
Potency is read from the fitted curve at half-maximal effect.

activation, inactive:
Cc1cccc(CN(Nc2ccccc2)c2ccccc2)n1 -3.22%
Nc1ccc(N2CCN(CCCCN3C(=O)C4CCCN4C3=O)CC2)cc1 (stereo not given) -11.5%

activation, inconclusive:
Cc1nc(SCC(=O)N2c3ccccc3NC(=O)CC2C)c2c(C)c(C)sc2n1 (stereo not given) 38.6% [activator]
CCN(CC)CCN(C(=O)c1ccc(C(C)=O)cc1)c1nc2ccc(Cl)cc2s1 40.7% [activator]
CCOc1ccccc1C(=O)OCC(=O)NCC1CCCCC1 -59.7% [activator]
Cc1ccc(Cl)cc1NC(=O)c1cc(NC(=O)C2CCCCC2C(=O)O)ccc1N1CCOCC1 (stereo not given) -81.3% [activator]
O=S1(=O)CCN2N=C(C3CC3)SC2=N1 33.7% [activator]
CCC(=O)Oc1c(Sc2ccc(Cl)cc2)c(C)nn1-c1ccccc1 -83.1% [activator]

At a glance, some entries already given:
activation, inconclusive:
CCOc1ccccc1C(=O)OCC(=O)NCC1CCCCC1 -59.7% [activator]
Cc1ccc(Cl)cc1NC(=O)c1cc(NC(=O)C2CCCCC2C(=O)O)ccc1N1CCOCC1 (stereo not given) -81.3% [activator]
O=S1(=O)CCN2N=C(C3CC3)SC2=N1 33.7% [activator]

Following part:

outcome, inactive:
COc1ccc(NC(=O)CN(C)C(=O)c2cccc(-n3cccc3)c2)cc1
Cc1ccc(-n2nnc(-c3nc(-c4cccs4)no3)c2N)c(C)c1
CCOCCn1c(CC)nc2ccccc21

Potency, inconclusive:
COc1ccc(NC(=O)CSc2n[nH]c(C)c2[N+](=O)[O-])cc1 141 µM [activator, single point]
COc1ccc(CC(=O)NCc2n[nH]c(=S)n2-c2cccc(Cl)c2)cc1 39.8 µM [activator, single point]
O=C(O)C(CCCCN1C(=O)c2ccccc2C1=O)N1C(=O)c2ccccc2C1=O (stereo not given) 31.6 µM [activator, single point]
O=C(c1ccc2c(c1)OCO2)N1CCN(c2ncccn2)CC1 141 µM [activator, single point]
COCCNC(=O)CN(C(=O)c1ccc(N2CCCC2)nc1)c1ccc(Cl)cc1 112 µM [activator, single point]
CCOc1cc2sc(N3CCC(C(=O)Nc4cc(C)cc(C)c4)CC3)nc2cc1Br 112 µM [activator, single point]
CCc1ccccc1NC(=O)Cn1c2ncccc2c(=O)n1-c1ccccc1 141 µM [activator, single point]
COc1ccc2oc(=O)c(-c3nnc(-c4ccc(C)cc4)o3)cc2c1 28.2 µM [activator, partial curve, poor fit]
CCC(COC)NCc1cn(-c2ccc(OC)cc2)nc1-c1cccc(F)c1 (stereo not given) 126 µM [activator, single point]
